Results of single-concentration screens

Values are the deposited “Percent Effect”, in %.
The record does not define 0% and 100%; most values in the screen are far below 50% and negative numbers occur (in some assays of this library far below -100).
Compounds were drawn at random from those tested, without regard to their results.
Two or more numbers in one place are separate tests of the same structure; such repeats can differ widely.

A: 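Phenotypic screen: M. tuberculosis growth, cholesterol and DPPC medium, 4 days; the read-out is not stated. Concentration: 50 µM. Higher reads as more growth inhibition (inferred: compounds with an IC50 in retests scored well above the rest). About 69,000 compounds were tested under these conditions; 0.54% (about 370) showed 50% or more at least once.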
B: 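Whole-cell growth test on Mycobacterium tuberculosis, read after 3 days in glucose-containing 7H9 medium; the read-out is not stated. Tested at 50 µM. Direction is inferred from retests: higher values go with more growth inhibition. Of about 69,000 compounds tested this way, about 760 (1.1%) reached 50% or more in at least one test.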

compound,A,B
CCn1c(C)nnc1CN(C)C1CCN(Cc2ccon2)C1 (stereo not shown),-30.28,-18.16 & -2.86
Cc1cc(=O)n(C)cc1NC(=O)Cc1ccc(C(F)(F)F)cc1,5.301,1.307
NC(=O)C1CCN(CC(=O)N(Cc2ccccc2)Cc2nccs2)CC1,12.4,-3.585 & 7.48
CC(=O)NC(C(=O)N1CCn2cncc2C1)C(C)C (stereo not shown),-3.031 & -1.193,2.926
Cc1cc(CCC(N)=O)cc(C2CCCN2Cc2cnc(C)nc2)n1 (stereo not shown),-10.79,-0.5521
CN(C)CC1CN(Cc2nc(-c3cccnc3)no2)CCO1 (stereo not shown),-3.18,-3.338 & -42.11
COc1ccc(CN(C)Cn2cc(C)n(-c3cc(C)on3)c2=O)cc1,-33,-18.99 & -3.02
CN(CCn1cncc1-c1cnc(N2CCOCC2)nc1)C1CCCC1,3.197 & 0.5311,-12.08
O=C(NCCN1CCCC1)c1nc2c(o1)CN(C(=O)c1cccnc1)C2.O=C(O)C(F)(F)F.O=C(O)C(F)(F)F,-25.46,-14.21 & 1.561
COc1cccc(CNC(=O)CC2CSc3nc(C)c(C)c(=O)n32)c1 (stereo not shown),-1.073,38.63
c1cncc(CNc2ccccc2-c2nn[nH]n2)c1,16.86,18.47
O=C(CCn1cncn1)NCC1CCOC1 (stereo not shown),-15.36,-27.04
CSCc1cc(F)ccc1CNC(=O)N1CCOCC1,0.1456 & -10.54,11.55
CC(=O)NCCNc1nc(C2CCCC2)nc2c1cnn2C,-10.09 & 11.94,5.96
O=S(=O)(c1ccc(-c2cnco2)cc1)N1CCC2(CCCNC2)C1 (stereo not shown),4.752,28.32
CCN(CCS(=O)(=O)CC)CC1CCCO1 (stereo not shown),2.561,0.2509 & -5.106
Cc1ccc(CN2CCOC3(COCCN(C(C)C)C3)C2)o1.O=C(O)C(F)(F)F.O=C(O)C(F)(F)F (stereo not shown),-9.774 & -23.46,-18.93
Cc1nccn1CC1CCCN1S(=O)(=O)Cc1cccc(C#N)c1 (stereo not shown),-33.26,-6.239
Cn1cc(-c2csc(N3CCOCC3)n2)cn1,18.29,30.26 & -5.352
[H][C@]12CC[C@]([H])(CN(C(=O)c3ccc(C(C)=O)s3)C1)N(CC1CCC1)C2,4.23,21.95
CC(C)c1noc(-c2ccc(NCc3noc(C(C)C)n3)nc2)n1,19.62,6.345 & 8.239
CCc1nc(CC(=O)NCC2(C(N)=O)CCOCC2)cs1,3.373,4.342
CC1c2ccc(F)cc2CCN1C(=O)c1nc(=O)[nH][nH]1 (stereo not shown),3.449 & -21.06,6.025
O=C(CCc1ccc(-c2ccccc2)[nH]1)N1CCCC(n2ccnc2)C1 (stereo not shown),16.8,37.84
CCN1CCC(CC(=O)N(C)C(C)c2cncs2)CC1 (stereo not shown),-15.27,0.2717
CC(C)Oc1ccc(C(O)CNCc2ccccc2C(F)(F)F)cc1 (stereo not shown),24.64,36.97
CN(C)c1ncc(-c2cc(C(=O)N3CCCC3)n(CC3CC3)c2)cn1,7.712,26.85
CC(C)(Oc1ccc(F)cc1)C(=O)NCc1ccco1,20.82,42.12
O=C(NCC1CCOCC1)c1cc(-c2ccncc2)c2cnccc2n1,2.749,10.07
O=C(O)C(F)(F)F.O=C(O)C(F)(F)F.[H][C@@]12CN(Cc3scnc3C)C[C@H](C(=O)N3CCCO3)[C@]1([H])CCO2,-11.77,2.049
C/N=C1/c2cc3cc(OC)ccc3n2CCN1Cc1ccccc1.Cl,4.846,32.12
O=C(Cc1ccc(Br)cc1)N1CC(S(=O)(=O)C2CCCCC2)C1,20.63,11.99 & 4.99
Cc1ccsc1C(=O)N1CCC2(CC(C(=O)N(C)C(C)C)=NO2)C1 (stereo not shown),15.54,7.781
CC(C)C(O)CNC(=O)Nc1cnn(Cc2ccccc2)c1 (stereo not shown),1.128,-8.908
N#CC1(C(=O)N2CCOC(c3ccc(F)cc3)C2)CCCC1 (stereo not shown),-8.57,-8.601 & 7.149
CCC(CNC(=O)c1ccc(F)cc1F)N1CCc2ccccc2C1 (stereo not shown),-1.12,14.69 & -0.5731
[H][C@@]12CCN(Cc3ccncc3)[C@]1([H])CC[C@H](COCC1CCOCC1)O2,-11.98 & -8.468,-22.43
O=C(CN1CCOC1=O)N1CC[C@@H](c2ccc3ccccc3c2)[C@H](O)C1,-5.548,7.29 & 12.98
Cc1cnn(CC2CCCN2Cc2nnsc2Cl)c1 (stereo not shown),-6.5,4.775
CS(=O)(=O)CCNC(=O)N(Cc1ccoc1)C1CCCCC1,-10.2,-12.94 & 8.211
CCN(CC)C(=O)C(c1ccccc1)N1CCn2c(C)nnc2C1 (stereo not shown),-5.194,-30.99
O=C(Cc1ccccn1)N1CCc2c(O)nc(-c3cnccn3)nc2C1,-16.55,-5.692
Fc1cccnc1N1CCCC(c2nccs2)C1 (stereo not shown),18.88,21.3
COc1cccc(CC(=O)NCCc2nnc3n2CCCCC3)c1,-26.07,-85.96 & -5.741
COCC(=O)NCc1cc(=O)n2c(n1)CN(Cc1nccs1)CCC2,1.432,-10.61
COCCNc1cc(C2CCCNC2)ccn1.Cl (stereo not shown),2.698 & -1.778,-28.99
Cc1cncc(NC(=O)c2ccc(CN3CCCC(C(N)=O)C3)cc2)c1 (stereo not shown),-20.39,-25.62 & 1.289
CCCc1n[nH]c(C2CN(C(=O)c3ccc(C)[nH]c3=O)CCO2)n1 (stereo not shown),-4.625,-0.6858
Cc1[nH]c2ccccc2c1-c1ccnc(N[C@H](CO)CC(C)C)n1,8.654,38.91
CCC(CO)NC(=O)Nc1ccc(OCC(F)(F)F)c(C)c1 (stereo not shown),-11.82,1.75
Cc1ccc(CNC(=O)NCCCO)cc1,-28.38,13.12
O=C(O)C(F)(F)F.O=C(O)C(F)(F)F.[H][C@@]12OCCN(Cc3ccccn3)[C@@]1([H])CC[C@H]2OCC(=O)N1CCCC1,-18.18,0.3609 & -8.844
Cc1cccnc1N1CCN(C(=O)C(C)n2ccnc2C(C)C)CC1 (stereo not shown),-10.86,-0.07039 & -25.8
CNC(=O)C1Cc2ccccc2CN1CCC#N (stereo not shown),24.1,-30.4
C[C@@H]1CN(C(=O)Nc2cccc(OC(F)F)c2)CC(C(N)=O)O1 (stereo partly shown),10.25,13.83 & 0.2194
Cc1nc(CN2C(=O)CCC23CCN(Cc2ccoc2)CC3)cs1.O=C(O)C(F)(F)F.O=C(O)C(F)(F)F,-26.58,-9.646
CCCn1ccnc1CN1CCC(Oc2ccc(Cl)cc2)(C(=O)O)CC1,4.402,-7.655
CN1CCC(N(C)C(=O)CCc2ccc(F)c(F)c2)C1=O (stereo not shown),5.108,24.92
CCc1cc(C(=O)N2CCC3(CCCN(CC4CC4)C3=O)C2)cs1 (stereo not shown),16.06,28.75 & 23.8
CCOc1ccnc(N2CCN(C(=O)c3cccnc3O)CC2)n1,-2.066,-8.381
Cn1cc(CN2CCCCC2c2ccc(-c3cccc(F)c3)nc2)cn1 (stereo not shown),11.41,22.11
Cc1cc(CN2CCCN(c3ccc(C#N)cc3)CC2)no1,10.12,11.07 & 7.616
CC(C)COC(C)C(=O)NCc1ccc(OC(C)C)nc1 (stereo not shown),9.329,15.47
Cc1nc(-c2nnc[nH]2)sc1C(=O)N1CCCC1c1cccs1 (stereo not shown),-6.962,16.39
CN(Cc1cc(-c2cccnc2)no1)C(=O)[C@@H]1CSCN1C,10.67,33.66
CCn1ccc2ccc(CN3CCCC3c3nc(C(C)C)no3)cc21 (stereo not shown),5.079,0.7373 & 2.743
CCc1noc(CN(CC)Cc2cc3ccc(F)cc3[nH]c2=O)n1,-17.41,-22.19
CCC(C)[C@H](N)c1nnc(SCC(=O)Nc2ccc(C)cc2C)o1.Cl (stereo partly shown),-5.435,-0.1915
Cn1ncc2c1C(COCC1CC1)CN(Cc1ccncc1)C2 (stereo not shown),10.69,-23.73
CC(C)C(=O)N1CCN(Cc2csc(-c3ccccn3)n2)CC1,-5.003 & -4.312,15.77
Cc1cc(C(=O)N2CCc3nnc(N)cc3C2)c(C)n1-c1ccccc1,-10.62,-22.71
Cc1cc(CN(C)C(=O)NC(C)Cc2ccco2)no1 (stereo not shown),-3.18,2.152
CCOC(=O)N1CCC(OC)c2ccccc2N(C)C(=O)C1 (stereo not shown),-7.671,12.93
O=C1NCCCCC1Sc1ccc(F)cc1F (stereo not shown),0.6295,-3.753
CCc1nc(CN2CCCN(C(=O)CC(C)OC)CC2)cs1 (stereo not shown),-60.64,-29.07
CC(C)c1n[nH]c(C2CN(C(=O)c3cc(C4CC4)on3)CCO2)n1 (stereo not shown),-7.926,-15.92
Cc1ccc(CN2CCc3c(CN4CCCC4)n[nH]c3C2)s1.O=C(O)C(F)(F)F.O=C(O)C(F)(F)F,4.549,12.49
CCOc1ccccc1CNC(=O)N(CC)C(C)c1cccnc1 (stereo not shown),17,-0.2365
CC1CN(C(=O)c2ccn(C)c(=O)c2)c2ccccc2NC1=O (stereo not shown),10.48,5.865
COc1cnc(N2CCC(Oc3ccccc3OC)(C(=O)O)CC2)nc1,-2.947,2.623
O=C(O)C(F)(F)F.O=C(O)C(F)(F)F.O=C(O)C(F)(F)F.[H][C@@]12C[C@H](C(=O)NCCN(C)C)N(C(C)C)[C@]1([H])CN(c1ncccn1)C2,-13.67,-3.57
Cn1ccnc1CN1CCC(Cn2cc(-c3ccccc3)nn2)CC1,-4.852,-0.6226
CSCC(CCO)NC(=O)Nc1cccc(Br)c1 (stereo not shown),-18.85,-3.879 & -31.52

From ChEMBL document CHEMBL3988442, “University of Dundee, Small-Polar-MMV Screening Library” (2021).